{"source": "PubChem BioAssay AID1259254 – NCATS – 2017", "screen": "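Gene knock-downs that lead to re-replication, shown by excess G2 DNA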 (primary screen)", "cell system": "human HCT116 colorectal cancer cells", "reagent": "single siRNA against human genes", "time to read-out": "3 days", "measurement": "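Nuclei stained with Hoechst and imaged; cell-cycle phase assigned by DNA content; G2 share scaled per plate, non-targeting siRNA 0%, GMNN siRNA 100%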", "direction": "G2 robust z-score and G2 cells, % of GMNN control: higher = more G2 cells, more excess DNA replication", "hit rule": "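Active siRNAs have a G2 robust z of 5 or more median absolute deviations over the median, which in these data means about 38% or higher of GMNN control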", "note": "Here is one part, drawn at random, of about 59,000 reagents. About 1,550 of them (2.6%) count as active. 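G2 share is only a proxy for re-replication; each gene was hit by three separate siRNAs, and active genes were retested.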 The numbers tell different reagents against one gene apart. Not all columns of the deposit are shown. Reagent sequences are not shown. The record does not give: the amount of reagent."}
{"target gene": "PRMT1", "reagent": 1, "G2 robust z-score": 1.09, "G2 cells, % of GMNN control": 10.6, "activity call": "inactive"}
{"target gene": "PRMT1", "reagent": 2, "G2 robust z-score": -0.428, "G2 cells, % of GMNN control": -0.0424, "activity call": "inactive"}
{"target gene": "PRMT1", "reagent": 3, "G2 robust z-score": -0.23, "G2 cells, % of GMNN control": 1.35, "activity call": "inactive"}
{"target gene": "TSSK4", "reagent": 1, "G2 robust z-score": 0.254, "G2 cells, % of GMNN control": 4.75, "activity call": "inactive"}
{"target gene": "TSSK4", "reagent": 2, "G2 robust z-score": -0.568, "G2 cells, % of GMNN control": -1.03, "activity call": "inactive"}
{"target gene": "TSSK4", "reagent": 3, "G2 robust z-score": -0.14, "G2 cells, % of GMNN control": 1.99, "activity call": "inactive"}
{"target gene": "MYO10", "reagent": 1, "G2 robust z-score": 1.9, "G2 cells, % of GMNN control": 16.3, "activity call": "inactive"}
{"target gene": "MYO10", "reagent": 2, "G2 robust z-score": -0.551, "G2 cells, % of GMNN control": -0.907, "activity call": "inactive"}
{"target gene": "MYO10", "reagent": 3, "G2 robust z-score": 0.315, "G2 cells, % of GMNN control": 5.18, "activity call": "inactive"}
{"target gene": "PGBD1", "reagent": 1, "G2 robust z-score": -0.555, "G2 cells, % of GMNN control": -0.938, "activity call": "inactive"}
{"target gene": "PGBD1", "reagent": 2, "G2 robust z-score": 2.75, "G2 cells, % of GMNN control": 22.3, "activity call": "inactive"}
{"target gene": "PGBD1", "reagent": 3, "G2 robust z-score": 0.0102, "G2 cells, % of GMNN control": 3.04, "activity call": "inactive"}

Part of the list above, reformatted:
target gene | reagent | G2 robust z-score | G2 cells, % of GMNN control | activity call
PGBD1 | 1 | -0.555 | -0.938 | inactive
PGBD1 | 2 | 2.75 | 22.3 | inactive

The results go on.
{"target gene": "NDUFS8", "reagent": 1, "G2 robust z-score": -1.08, "G2 cells, % of GMNN control": -4.65, "activity call": "inactive"}
{"target gene": "NDUFS8", "reagent": 2, "G2 robust z-score": -1.12, "G2 cells, % of GMNN control": -4.91, "activity call": "inactive"}
{"target gene": "NDUFS8", "reagent": 3, "G2 robust z-score": 6.69, "G2 cells, % of GMNN control": 50, "activity call": "active"}
{"target gene": "LDHAL6B", "reagent": 1, "G2 robust z-score": -0.534, "G2 cells, % of GMNN control": -0.793, "activity call": "inactive"}
{"target gene": "LDHAL6B", "reagent": 2, "G2 robust z-score": 0.016, "G2 cells, % of GMNN control": 3.08, "activity call": "inactive"}
{"target gene": "LDHAL6B", "reagent": 3, "G2 robust z-score": -0.225, "G2 cells, % of GMNN control": 1.38, "activity call": "inactive"}
